Measurements reported in PubChem BioAssay AID1671195 (Yale University, 2021)
Here is an unselected part of about 22,000 deposited reagents. In the full data, about 1,510 (6.9%) were called active. 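Active includes knockdowns raising or lowering LDL uptake; positive z-scores mean more uptake, negative mean less.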

Purpose: 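Knockdowns that increase or decrease uptake of fluorescent LDL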 (primary screen)
Cell system: human Huh7 hepatoma cells
Reagent: siRNA pool against human genes, 18 nM
Duration: about 2 to 2.5 days of knockdown, then 8 h LDL uptake
Treatment: DiI-labelled LDL at 30 µg/ml for 8 h, in lipoprotein-deficient serum medium
Read-out: 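Per-cell DiI-LDL intensity by automated imaging; well means scaled to the plate median and given as a robust z-score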
Direction: robust z-score: higher = more LDL uptake after knockdown
Active means: 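a gene counts as active if at least two replicate z-scores exceed ±2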

no.	target gene	PubChem SID	robust z-score, replicate 1	robust z-score, replicate 2	robust z-score, replicate 3	outcome
1	PCTP (phosphatidylcholine transfer protein)	SID442901014	-2.39	-0.208	0.0811	inactive
2	MRPS12 (mitochondrial ribosomal protein S12)	SID442891605	-0.867	0.115	1.55	inactive
3	UCP1 (uncoupling protein 1)	SID442898928	-0.502	-0.751	-0.413	inactive
4	GSTK1 (glutathione S-transferase kappa 1)	SID442884254	-2.46	-2.65	0.637	active
5	TMEM125 (transmembrane protein 125)	SID442883220	4.36	3.36	3.75	active
6	VWA7 (von Willebrand factor A domain containing 7)	SID442884456	-2.29	-2.1	-2.08	active
7	IRF4 (interferon regulatory factor 4)	SID442884811	0.946	2.99	1.67	inactive
8	U2AF1L4 (U2 small nuclear RNA auxiliary factor 1 like 4)	SID442893793	0.178	-0.0917	-0.0565	inactive
9	ROBO1 (roundabout guidance receptor 1)	SID442888350	0.448	0.224	1.53	inactive
10	LOC158796 (retired record)	SID442902879	-1.44	-1.06	-0.999	inactive
11	ANXA4 (annexin A4)	SID442900868	-0.588	-1.1	-0.768	inactive
12	AP3B2 (adaptor related protein complex 3 subunit beta 2)	SID442890018	0.202	0.578	0.644	inactive
13	LINC00705 (long independently transcribed non-coding RNA 705)	SID442888229	1.01	0.6	0.673	inactive
14	FAM229B (family with sequence similarity 229 member B)	SID442888614	0.362	0.942	0.768	inactive
15	RBMX2 (RNA binding motif protein X-linked 2)	SID442887292	1.25	0.779	0.807	inactive
16	SF3B1 (splicing factor 3b subunit 1)	SID442891318	-0.0372	-0.111	1.05	inactive
17	SLC40A1	SID442899687	-0.529	0.0815	-1.51	inactive
18	LINC01622 (long independently transcribed non-coding RNA 1622)	SID442887193	0.782	1.16	0.949	inactive
19	FAM219B (family with sequence similarity 219 member B)	SID442894235	0.0943	-0.00183	-0.216	inactive
20	VSTM4 (V-set and transmembrane domain containing 4)	SID442902178	-0.815	-1.26	-0.995	inactive
21	KHSRP (KH-type splicing regulatory protein)	SID442885914	1.52	0.591	1.87	inactive
22	CNDP2 (carnosine dipeptidase 2)	SID442895753	-0.0419	-0.375	-0.191	inactive
23	ARMCX5 (armadillo repeat containing X-linked 5)	SID442899638	-0.424	-0.761	-0.762	inactive
24	TCEA3 (transcription elongation factor A3)	SID442889823	0.724	0.19	0.598	inactive
25	OR4C13 (olfactory receptor family 4 subfamily C member 13)	SID442894731	-0.0893	-0.0728	-0.123	inactive
26	SRM (spermidine synthase)	SID442890076	0.188	0.748	0.465	inactive
27	FYRD1 (FYRN and FYRC domains INO80 complex interactor 1)	SID442891714	1.01	-0.381	0.131	inactive
28	ADAM15 (ADAM metallopeptidase domain 15)	SID442892795	-0.0874	0.144	0.312	inactive
29	LAMB3 (laminin subunit beta 3)	SID442902201	-1.08	-0.99	-1.02	inactive
30	OR51I2 (olfactory receptor family 51 subfamily I member 2)	SID442899113	-0.602	-0.251	-0.88	inactive

Ordered by “robust z-score, replicate 3” (low to high): 10 of the entries above
target gene	PubChem SID	robust z-score, replicate 1	robust z-score, replicate 2	robust z-score, replicate 3	outcome
LOC158796 (retired record)	SID442902879	-1.44	-1.06	-0.999	inactive
ANXA4 (annexin A4)	SID442900868	-0.588	-1.1	-0.768	inactive
U2AF1L4 (U2 small nuclear RNA auxiliary factor 1 like 4)	SID442893793	0.178	-0.0917	-0.0565	inactive
AP3B2 (adaptor related protein complex 3 subunit beta 2)	SID442890018	0.202	0.578	0.644	inactive
LINC00705 (long independently transcribed non-coding RNA 705)	SID442888229	1.01	0.6	0.673	inactive
FAM229B (family with sequence similarity 229 member B)	SID442888614	0.362	0.942	0.768	inactive
RBMX2 (RNA binding motif protein X-linked 2)	SID442887292	1.25	0.779	0.807	inactive
SF3B1 (splicing factor 3b subunit 1)	SID442891318	-0.0372	-0.111	1.05	inactive
ROBO1 (roundabout guidance receptor 1)	SID442888350	0.448	0.224	1.53	inactive
IRF4 (interferon regulatory factor 4)	SID442884811	0.946	2.99	1.67	inactive

Further entries follow:
no.	target gene	PubChem SID	robust z-score, replicate 1	robust z-score, replicate 2	robust z-score, replicate 3	outcome
31	CDYL (chromodomain Y like)	SID442892090	0.363	0.23	0.0358	inactive
32	ZNF436 (zinc finger protein 436)	SID442890860	0.25	0.0658	0.768	inactive
33	FLOT1 (flotillin 1)	SID442884361	-2.05	-2.09	-1.87	active
34	LRRC17 (leucine rich repeat containing 17)	SID442899096	0.342	-1.51	-0.565	inactive
35	KLF3-AS1 (KLF3 antisense RNA 1)	SID442893678	-0.115	0.27	-0.0874	inactive
36	SERPINB13 (serpin family B member 13)	SID442889618	0.651	0.158	0.79	inactive
37	SSB (small RNA binding exonuclease protection factor La)	SID442890261	0.462	0.122	0.742	inactive
38	MUC3B (mucin 3B, cell surface associated)	SID442888017	0.89	0.381	1.12	inactive
39	BTNL9 (butyrophilin like 9)	SID442883155	5.38	4.13	3.72	active
40	SMNDC1 (survival motor neuron domain containing 1)	SID442898049	-0.732	-0.306	-0.331	inactive
41	ZMIZ1-AS1 (ZMIZ1 antisense RNA 1)	SID442900357	-0.786	-0.663	-0.8	inactive
42	TBL2 (transducin beta like 2)	SID442890102	0.605	0.729	0.0574	inactive
43	LOC390550 (retired record)	SID442888849	0.605	0.63	0.719	inactive
44	LOC400388 (retired record)	SID442883883	1.72	2.54	2.34	active
45	ERN1 (endoplasmic reticulum to nucleus signaling 1)	SID442884972	1.89	1.49	1.88	inactive
46	SFR1 (SWI5 dependent homologous recombination repair protein 1)	SID442893174	0.0991	0.0939	0.0491	inactive
47	DDHD1 (DDHD domain containing 1)	SID442903369	-1.28	-1.39	-1.18	inactive
48	KLHL32 (kelch like family member 32)	SID442896066	0.853	-1.24	-0.314	inactive
49	SEC61A1 (SEC61 translocon subunit alpha 1)	SID442900636	-1.87	-0.00608	-0.487	inactive
50	LINC00971 (long independently transcribed non-coding RNA 971)	SID442904415	-1.42	-1.85	-1.63	inactive
51	SLC4A1	SID442901692	-0.869	-0.998	-0.955	inactive
52	IMP3 (IMP U3 small nucleolar ribonucleoprotein 3)	SID442885533	0.99	2.04	1.4	inactive
53	DLX5 (distal-less homeobox 5)	SID442904545	-1.75	-1.43	-1.93	inactive
54	ST6GALNAC6 (ST6 N-acetylgalactosaminide alpha-2,6-sialyltransferase 6)	SID442902518	-1.09	-1.18	-1.01	inactive
55	COX8C (cytochrome c oxidase subunit 8C)	SID442891546	0.111	0.425	0.283	inactive
56	LOC388681 (retired record)	SID442900104	-0.29	-0.876	-0.972	inactive
57	SLC9A2	SID442890518	0.697	0.624	-0.102	inactive
58	CCNG1 (cyclin G1)	SID442895342	-0.754	0.447	-0.174	inactive
59	BIRC5 (baculoviral IAP repeat containing 5)	SID442892260	0.368	0.321	-0.116	inactive
60	LOC440004 (retired record)	SID442883184	4.13	3.99	4.27	active
61	POLR3D (RNA polymerase III subunit D)	SID442894118	0.537	-1.11	0.483	inactive
62	RPLP2 (ribosomal protein lateral stalk subunit P2)	SID442884469	-1.87	-1.95	-2.72	active
63	TUBB4A (tubulin beta 4A class IVa)	SID442900074	-0.639	-0.629	-0.857	inactive
64	SPRR4 (small proline rich protein 4)	SID442887755	0.919	0.617	1.01	inactive
65	LOC441999 (retired record)	SID442893183	0.177	-0.0669	0.128	inactive
66	ABHD14B (abhydrolase domain containing 14B)	SID442896449	-0.272	-0.252	-0.3	inactive
67	ECD (ecdysoneless cell cycle regulator)	SID442883931	2.48	1.17	2.78	active
68	IL36G (interleukin 36 gamma)	SID442903151	-1.37	-1.08	-1.24	inactive
